# Reference: the supplement of paper PMC5355238
# Counter-ions that a name gives are not always drawn. The list shows a part of the results. Most values lie at the level of the controls, where differences are scatter.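 Reh, a human leukemia cell line, is read out by flow cytometry as the median γH2AX antibody signal in S-phase cells; the score counts standard deviations from the median difference of each paired plate set. Scores above 2.5 were candidate hits; scores below -2 mark compounds lowering MK1775-induced damage.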
# Test system: Reh
# Assay: Z' of S-phase gammaH2AX difference (drug + MK1775 minus drug alone) (Z-score); higher = stronger synergistic S-phase DNA damage with MK1775
# Conditions: MK1775 concentration 400 nM; first compound 10 µM; 4 h
row,SMILES,Z' of S-phase gammaH2AX difference (Z-score)
1,S=C(S)N1CCCC1 [Ammonium pyrrolidinedithiocarbamate] + C=CCn1c(=O)c2cnc(Nc3ccc(N4CCN(C)CC4)cc3)nc2n1-c1cccc(C(C)(C)O)n1 [MK1775],inactive: 0.437
2,CCN(CC)CC(=O)Nc1c(C)cccc1C [Lidocaine hydrochloride] + C=CCn1c(=O)c2cnc(Nc3ccc(N4CCN(C)CC4)cc3)nc2n1-c1cccc(C(C)(C)O)n1 [MK1775],inactive: -0.534
3,c1ccc2c(CC3=NCCN3)cccc2c1 [Naphazoline hydrochloride] + C=CCn1c(=O)c2cnc(Nc3ccc(N4CCN(C)CC4)cc3)nc2n1-c1cccc(C(C)(C)O)n1 [MK1775],inactive: -0.573
4,"O=C(O)[C@@H]1C[C@H](C(=O)O)N1 [cis-Azetidine-2,4-dicarboxylic acid] + C=CCn1c(=O)c2cnc(Nc3ccc(N4CCN(C)CC4)cc3)nc2n1-c1cccc(C(C)(C)O)n1 [MK1775]",inactive: -0.157
5,CC(C=CC(=O)NO)=CC(C)C(=O)c1ccc(N(C)C)cc1 (centres undefined) [Trichostatin A (TSA)] + C=CCn1c(=O)c2cnc(Nc3ccc(N4CCN(C)CC4)cc3)nc2n1-c1cccc(C(C)(C)O)n1 [MK1775],inactive: 0.0776
6,Nc1ncnc2c1nc(Br)n2C1OC2COP(=O)(O)O[C@@H]2C1O (some centres undefined) [8-Bromo-cAMP sodium] + C=CCn1c(=O)c2cnc(Nc3ccc(N4CCN(C)CC4)cc3)nc2n1-c1cccc(C(C)(C)O)n1 [MK1775],inactive: 0.0334
7,"Ic1ccc(N2CCN(Cc3c[nH]c4ncccc34)CC2)cc1 [L-750,667 trihydrochloride] + C=CCn1c(=O)c2cnc(Nc3ccc(N4CCN(C)CC4)cc3)nc2n1-c1cccc(C(C)(C)O)n1 [MK1775]",inactive: 1.55
8,O=C(Nc1cccc(C(=O)Nc2ccc(S(=O)(=O)O)c3cc(S(=O)(=O)O)cc(S(=O)(=O)O)c23)c1)Nc1cccc(C(=O)Nc2ccc(S(=O)(=O)O)c3cc(S(=O)(=O)O)cc(S(=O)(=O)O)c23)c1 + C=CCn1c(=O)c2cnc(Nc3ccc(N4CCN(C)CC4)cc3)nc2n1-c1cccc(C(C)(C)O)n1 [MK1775],inactive: 1.31
9,COc1cccc2c1C(=O)c1c(O)c3c(c(O)c1C2=O)C[C@@](O)(C(C)=O)C[C@@H]3O[C@H]1C[C@H](N)[C@H](O)[C@H](C)O1 [Daunorubicin HCl (Daunomycin HCl)] + C=CCn1c(=O)c2cnc(Nc3ccc(N4CCN(C)CC4)cc3)nc2n1-c1cccc(C(C)(C)O)n1 [MK1775],inactive: -0.835
10,CNC(=O)c1cc(Oc2ccc(NC(=O)Nc3ccc(Cl)c(C(F)(F)F)c3)cc2)ccn1 [Sorafenib (Nexavar)] + C=CCn1c(=O)c2cnc(Nc3ccc(N4CCN(C)CC4)cc3)nc2n1-c1cccc(C(C)(C)O)n1 [MK1775],inactive: -0.478
11,COc1ccccc1N1CCN(CCN(C(=O)c2ccc(I)cc2)c2ccccn2)CC1 [p-MPPI hydrochloride] + C=CCn1c(=O)c2cnc(Nc3ccc(N4CCN(C)CC4)cc3)nc2n1-c1cccc(C(C)(C)O)n1 [MK1775],inactive: 0.577
12,OCCn1cc(-c2cnc3nnn(Cc4ccc5ncccc5c4)c3n2)cn1 + C=CCn1c(=O)c2cnc(Nc3ccc(N4CCN(C)CC4)cc3)nc2n1-c1cccc(C(C)(C)O)n1 [MK1775],inactive: 0.154
13,OC1(c2ccc(Cl)cc2)CCN(Cc2c[nH]c3ccccc23)CC1 + C=CCn1c(=O)c2cnc(Nc3ccc(N4CCN(C)CC4)cc3)nc2n1-c1cccc(C(C)(C)O)n1 [MK1775],inactive: -0.485
14,COc1ccc2cc([C@H](C)C(=O)O)ccc2c1 [(-)-Naproxen sodium] + C=CCn1c(=O)c2cnc(Nc3ccc(N4CCN(C)CC4)cc3)nc2n1-c1cccc(C(C)(C)O)n1 [MK1775],inactive: -0.15
15,Nc1cc(N2CCCCC2)nc(N)[n+]1[O-] [Minoxidil] + C=CCn1c(=O)c2cnc(Nc3ccc(N4CCN(C)CC4)cc3)nc2n1-c1cccc(C(C)(C)O)n1 [MK1775],inactive: -0.141
16,"Nc1ncnc2c1ncn2[C@@H]1O[C@H](COP(=O)(O)OP(=O)(O)OP(=O)(O)OP(=O)(O)OC[C@@H]2O[C@H](n3cnc4c(N)ncnc43)C(O)[C@@H]2O)[C@H](O)C1O (some centres undefined) [P1,P4-Di(adenosine-5')tetraphosphate triammonium] + C=CCn1c(=O)c2cnc(Nc3ccc(N4CCN(C)CC4)cc3)nc2n1-c1cccc(C(C)(C)O)n1 [MK1775]",inactive: -1.27
17,CCOc1cc(C(=O)Nc2ccc(Cl)c(-c3nc4ccccc4[nH]3)c2)cc(OCC)c1OCC + C=CCn1c(=O)c2cnc(Nc3ccc(N4CCN(C)CC4)cc3)nc2n1-c1cccc(C(C)(C)O)n1 [MK1775],inactive: -0.0554

row,SMILES,Z' of S-phase gammaH2AX difference (Z-score)
1,C=C[C@H]1CN2CC[C@H]1C[C@H]2[C@H](O)c1ccnc2ccc(OC)cc12 [Quinine sulfate] + C=CCn1c(=O)c2cnc(Nc3ccc(N4CCN(C)CC4)cc3)nc2n1-c1cccc(C(C)(C)O)n1 [MK1775],inactive: -0.679
2,O=c1n(CCCN2CCN(c3cccc(Cl)c3)CC2)nc2ccccn12 [Trazodone hydrochloride] + C=CCn1c(=O)c2cnc(Nc3ccc(N4CCN(C)CC4)cc3)nc2n1-c1cccc(C(C)(C)O)n1 [MK1775],inactive: 0.0988
3,Oc1ccc(-c2nc(-c3ccc(F)cc3)c(-c3ccncc3)[nH]2)cc1 + C=CCn1c(=O)c2cnc(Nc3ccc(N4CCN(C)CC4)cc3)nc2n1-c1cccc(C(C)(C)O)n1 [MK1775],inactive: -0.0134
4,O=C(O)c1ccc2cc(-c3ccc(O)c(C45CC6CC(CC(C6)C4)C5)c3)ccc2c1 + C=CCn1c(=O)c2cnc(Nc3ccc(N4CCN(C)CC4)cc3)nc2n1-c1cccc(C(C)(C)O)n1 [MK1775],active: 7.31
5,NC(=O)c1cnccn1 [Pyrazinecarboxamide] + C=CCn1c(=O)c2cnc(Nc3ccc(N4CCN(C)CC4)cc3)nc2n1-c1cccc(C(C)(C)O)n1 [MK1775],inactive: -0.146
6,Nc1nc(N)c(N=O)c(OCC2CCCCC2)n1 + C=CCn1c(=O)c2cnc(Nc3ccc(N4CCN(C)CC4)cc3)nc2n1-c1cccc(C(C)(C)O)n1 [MK1775],inactive: 0.348
7,O=C(CCNNC(=O)c1ccncc1)NCc1ccccc1 [Nialamide] + C=CCn1c(=O)c2cnc(Nc3ccc(N4CCN(C)CC4)cc3)nc2n1-c1cccc(C(C)(C)O)n1 [MK1775],inactive: -0.175
8,N/C(=N\C(=O)c1nc(Cl)c(N)nc1N)NCc1ccccc1 [Benzamil hydrochloride] + C=CCn1c(=O)c2cnc(Nc3ccc(N4CCN(C)CC4)cc3)nc2n1-c1cccc(C(C)(C)O)n1 [MK1775],inactive: -0.611
9,"CCCn1c(=O)c2[nH]c(C3CCCC3)nc2n(CCC)c1=O [8-Cyclopentyl-1,3-dipropylxanthine] + C=CCn1c(=O)c2cnc(Nc3ccc(N4CCN(C)CC4)cc3)nc2n1-c1cccc(C(C)(C)O)n1 [MK1775]",inactive: 0.608
10,Nc1ccc(-c2ccc3ncc4ccc(=O)n(-c5cccc(C(F)(F)F)c5)c4c3c2)cn1 [Torin 2] + C=CCn1c(=O)c2cnc(Nc3ccc(N4CCN(C)CC4)cc3)nc2n1-c1cccc(C(C)(C)O)n1 [MK1775],inactive: -1.15
11,CCC(=O)c1ccc2c(c1)N(CCCN(C)C)c1ccccc1S2 [Propionylpromazine hydrochloride] + C=CCn1c(=O)c2cnc(Nc3ccc(N4CCN(C)CC4)cc3)nc2n1-c1cccc(C(C)(C)O)n1 [MK1775],inactive: 0.359
12,Cc1nc2ccccn2c(=O)c1CCN1CCC(C(=O)c2ccc(F)cc2)CC1 [Pirenperone] + C=CCn1c(=O)c2cnc(Nc3ccc(N4CCN(C)CC4)cc3)nc2n1-c1cccc(C(C)(C)O)n1 [MK1775],inactive: -0.15
13,COc1cccc2c1C(=O)c1c(O)c3c(c(O)c1C2=O)C[C@@](O)(C(=O)CO)C[C@@H]3O[C@H]1C[C@H](N)[C@@H](O)[C@H](C)O1 [Epirubicin Hydrochloride] + C=CCn1c(=O)c2cnc(Nc3ccc(N4CCN(C)CC4)cc3)nc2n1-c1cccc(C(C)(C)O)n1 [MK1775],inactive: -0.2
14,CCCN(CCC)CCc1cccc2c1CC(=O)N2 [Ropinirole hydrochloride] + C=CCn1c(=O)c2cnc(Nc3ccc(N4CCN(C)CC4)cc3)nc2n1-c1cccc(C(C)(C)O)n1 [MK1775],inactive: -0.592
15,N=C(N)c1ccc(N)cc1 [4-Aminobenzamidine dihydrochloride] + C=CCn1c(=O)c2cnc(Nc3ccc(N4CCN(C)CC4)cc3)nc2n1-c1cccc(C(C)(C)O)n1 [MK1775],inactive: -0.337
16,CC(=O)O[C@H]1C(=O)[C@@]2(C)[C@H]([C@H](OC(=O)c3ccccc3)[C@]3(O)C[C@H](OC(=O)[C@H](O)[C@@H](NC(=O)c4ccccc4)c4ccccc4)C(C)=C1C3(C)C)[C@]1(OC(C)=O)CO[C@@H]1C[C@@H]2O [Taxol] + C=CCn1c(=O)c2cnc(Nc3ccc(N4CCN(C)CC4)cc3)nc2n1-c1cccc(C(C)(C)O)n1 [MK1775],inactive: -0.334
17,CC(=O)O[C@H]1C(=O)[C@@]2(C)[C@H]([C@H](OC(=O)c3ccccc3)[C@]3(O)C[C@H](OC(=O)[C@H](O)[C@@H](NC(=O)c4ccccc4)c4ccccc4)C(C)=C1C3(C)C)[C@]1(OC(C)=O)CO[C@@H]1C[C@@H]2O [Paclitaxel (Taxol)] + C=CCn1c(=O)c2cnc(Nc3ccc(N4CCN(C)CC4)cc3)nc2n1-c1cccc(C(C)(C)O)n1 [MK1775],inactive: 0.0761

# Exported tab-delimited: entries from further up.
row	SMILES	Z' of S-phase gammaH2AX difference (Z-score)
1	S=C(S)N1CCCC1 [Ammonium pyrrolidinedithiocarbamate] + C=CCn1c(=O)c2cnc(Nc3ccc(N4CCN(C)CC4)cc3)nc2n1-c1cccc(C(C)(C)O)n1 [MK1775]	inactive: 0.437
7	Ic1ccc(N2CCN(Cc3c[nH]c4ncccc34)CC2)cc1 [L-750,667 trihydrochloride] + C=CCn1c(=O)c2cnc(Nc3ccc(N4CCN(C)CC4)cc3)nc2n1-c1cccc(C(C)(C)O)n1 [MK1775]	inactive: 1.55
10	CNC(=O)c1cc(Oc2ccc(NC(=O)Nc3ccc(Cl)c(C(F)(F)F)c3)cc2)ccn1 [Sorafenib (Nexavar)] + C=CCn1c(=O)c2cnc(Nc3ccc(N4CCN(C)CC4)cc3)nc2n1-c1cccc(C(C)(C)O)n1 [MK1775]	inactive: -0.478
11	COc1ccccc1N1CCN(CCN(C(=O)c2ccc(I)cc2)c2ccccn2)CC1 [p-MPPI hydrochloride] + C=CCn1c(=O)c2cnc(Nc3ccc(N4CCN(C)CC4)cc3)nc2n1-c1cccc(C(C)(C)O)n1 [MK1775]	inactive: 0.577
12	OCCn1cc(-c2cnc3nnn(Cc4ccc5ncccc5c4)c3n2)cn1 + C=CCn1c(=O)c2cnc(Nc3ccc(N4CCN(C)CC4)cc3)nc2n1-c1cccc(C(C)(C)O)n1 [MK1775]	inactive: 0.154
14	COc1ccc2cc([C@H](C)C(=O)O)ccc2c1 [(-)-Naproxen sodium] + C=CCn1c(=O)c2cnc(Nc3ccc(N4CCN(C)CC4)cc3)nc2n1-c1cccc(C(C)(C)O)n1 [MK1775]	inactive: -0.15
7	O=C(CCNNC(=O)c1ccncc1)NCc1ccccc1 [Nialamide] + C=CCn1c(=O)c2cnc(Nc3ccc(N4CCN(C)CC4)cc3)nc2n1-c1cccc(C(C)(C)O)n1 [MK1775]	inactive: -0.175
11	CCC(=O)c1ccc2c(c1)N(CCCN(C)C)c1ccccc1S2 [Propionylpromazine hydrochloride] + C=CCn1c(=O)c2cnc(Nc3ccc(N4CCN(C)CC4)cc3)nc2n1-c1cccc(C(C)(C)O)n1 [MK1775]	inactive: 0.359
17	CC(=O)O[C@H]1C(=O)[C@@]2(C)[C@H]([C@H](OC(=O)c3ccccc3)[C@]3(O)C[C@H](OC(=O)[C@H](O)[C@@H](NC(=O)c4ccccc4)c4ccccc4)C(C)=C1C3(C)C)[C@]1(OC(C)=O)CO[C@@H]1C[C@@H]2O [Paclitaxel (Taxol)] + C=CCn1c(=O)c2cnc(Nc3ccc(N4CCN(C)CC4)cc3)nc2n1-c1cccc(C(C)(C)O)n1 [MK1775]	inactive: 0.0761
